Results: patent US6096874A (Board of Regents, the University of Texas System, priority 1995, dated 2000)
Entries after “also recorded” stand apart in the source; their conditions may differ.

System: breast tumors
Experiment: PET imaging of ER+ breast tumors in patients
Type: in vivo, human
Conditions: 2 hours postinjection

CCN(CC)CCOc1ccc(/C(=C(/CCC[18F])c2ccccc2)c2ccccc2)cc1 [[^18 F]FTX, (trans)[^18 F]Fluoromethyl-N,N-diethyltamoxifen]
Detection/uptake in patients (in words): breast tumors of all three patients showed uptake; also recorded: liver and lung uptakes were high at 2 hours postinjection; also recorded: primary (left breast) and metastatic (right lymph node) breast tumors could be detected
Detection/uptake in patients (in words) (listed as 18 F-labeled tamoxifen ligand): both primary and metastatic breast tumors could be diagnosed
